Results deposited as PubChem BioAssay AID1259308 (NCATS, 2017).

Purpose: 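Knock-downs that increase output of a recombinant reporter protein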 (primary screen)
Cells: human HEK293 embryonic kidney cells stably expressing firefly luciferase (HEK-CMV-Luc2-Hygro)
Knock-down reagent: single siRNA against human genes, 0.8 pmol siRNA per well
Duration: 72 h
Measured: 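Reporter luminescence and viable-cell signal on separate replicate plates, given as percent of non-targeting control and median/MAD z-scores, plus per-cell luciferase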
Scale: total luciferase, z-score: higher = more reporter protein produced
Rule for the call: 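Active when the median/MAD z-score for overall luciferase is greater than 3; a gene was taken forward for validation with new siRNAs if at least two of its three siRNAs passed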
Meaning of the calls: active = raised luciferase; inactive = no rise
Shown is one part, drawn at random, of about 59,000 deposited reagents. Over the whole deposit, about 1,510 (2.6%) got an active call. 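Calls use total luciferase alone and ignore viability, so some active siRNAs may act by altering cell number.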 Unmarked entries are inactive. Reagents against one gene are numbered here. Further read-outs or replicates are left out here. Reagent sequences are not shown.

Target gene | siRNA no. | total luciferase, z-score
MAP3K9 (mitogen-activated protein kinase kinase kinase 9) | 1 | 0.714
MAP3K9 (mitogen-activated protein kinase kinase kinase 9) | 2 | 1.36
MAP3K9 (mitogen-activated protein kinase kinase kinase 9) | 3 | 2.85
AMZ2 (archaelysin family metallopeptidase 2) | 1 | -0.411
AMZ2 (archaelysin family metallopeptidase 2) | 2 | -0.729
AMZ2 (archaelysin family metallopeptidase 2) | 3 | 1.41
SIPA1 (signal-induced proliferation-associated 1) | 1 | 1.68
SIPA1 (signal-induced proliferation-associated 1) | 2 | -0.447
SIPA1 (signal-induced proliferation-associated 1) | 3 | -0.905
PRPF38B (pre-mRNA processing factor 38B) | 1 | 0.119
PRPF38B (pre-mRNA processing factor 38B) | 2 | -0.86
PRPF38B (pre-mRNA processing factor 38B) | 3 | -0.922

Targets listed so far whose gene name begins with A or a:
Target gene | siRNA no. | total luciferase, z-score
AMZ2 (archaelysin family metallopeptidase 2) | 1 | -0.411
AMZ2 (archaelysin family metallopeptidase 2) | 2 | -0.729
AMZ2 (archaelysin family metallopeptidase 2) | 3 | 1.41

The listing continues.
Target gene | siRNA no. | total luciferase, z-score
CLNS1A (chloride nucleotide-sensitive channel 1A) | 1 | 0.81
CLNS1A (chloride nucleotide-sensitive channel 1A) | 2 | -0.384
CLNS1A (chloride nucleotide-sensitive channel 1A) | 3 | -0.781
SCAND3 (SCAN domain containing 3) | 1 | -0.613
SCAND3 (SCAN domain containing 3) | 2 | 0.744
SCAND3 (SCAN domain containing 3) | 3 | -0.405
MAZ (MYC associated zinc finger protein) | 1 | 0.259
MAZ (MYC associated zinc finger protein) | 2 | -0.835
MAZ (MYC associated zinc finger protein) | 3 | -0.373
RAB44 (RAB44, member RAS oncogene family) | 1 | -1.47
RAB44 (RAB44, member RAS oncogene family) | 2 | -1.22
RAB44 (RAB44, member RAS oncogene family) | 3 | 0.0073
